# Test results taken from PubChem BioAssay AID2685 (National Center for Advancing Translational Sciences (NCATS), 2010).
# This is one part of the list. The main result of the screen is listed elsewhere. These columns were measured beside it and carry no call. Most of these compounds were active or inconclusive in the main read-out, so they are no random draw. Words in brackets tell the shape of the fitted curve; partial curves, single points and poor fits give uncertain potencies.
# Assay: qHTS Assay for Lipid Storage Modulators in Drosophila S3 Cells;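 for cell number change: cells counted by Cell Tracker Red CMTPX staining in the red channel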
# Conditions: BODIPY lipid droplet fluorescence, 18-24 h; for cell number change: measured here: cell count max response, cells fed with added oleic acid
# Outline: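 Drosophila S3 cells loaded with oleic acid (400 uM, as added) and compounds at several concentrations; lipid droplets imaged by 488-nm laser-scanning cytometry, 500–530 nm intensity and object ratio to cell channel. Percent activity normalized to 20 uM Triacsin C.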
# [1] = measured here: cell number channel AC50, cells fed with added oleic acid
# [2] = measured here: lipid fluorescence (Fed channel) AC50, cells fed with added oleic acid
Structure (SMILES),cell number change,AC50 [1],AC50 [2]
Cc1noc(C)c1S(=O)(=O)N(CC(=O)NCc1ccccc1)c1ccc(C(C)C)cc1,-56.8%,"29.1 µM [falling, single point]","29.1 µM [falling, single point]"
Cc1cc(N=Nc2ccc(Cl)cc2)cc(CN2CCCC2)c1O,-65.8%,"16.4 µM [falling, partial curve]","13 µM [falling, partial curve]"
CC(=O)Nc1nc2ccccc2n1Cc1ccccc1,28.7%,–,"0.231 µM [rising, full curve, poor fit]"
Cc1ccc(NC(=O)c2cc(S(=O)(=O)N3CCC4(CC3)OCCO4)ccc2F)cc1,–,"3.66 µM [rising, single point]","6.51 µM [rising, single point]"
Cc1nn(Cc2ccccc2)c(C)c1NC(=O)CCCn1nc([N+](=O)[O-])cc1C,–,–,"14.6 µM [rising, partial curve, poor fit]"
Cc1cc(/C=C(\C#N)C(=O)NCCc2c[nH]c3ccccc23)c(C)n1C,–,"0.13 µM [rising, full curve, poor fit]","0.103 µM [rising, full curve, poor fit]"
COc1ccc(S(N)(=O)=O)cc1C(=O)OCC(=O)N1CC(=O)Nc2ccccc21,-1.5%,–,–
O=C(N/N=C/c1ccco1)C1CC(=O)N(c2ccccc2)C1 (configuration not stated),6.55%,–,"1.3 µM [falling, full curve]"
CC(=O)Nc1c(O)[nH]c2ccccc12,-94.2%,"23.1 µM [falling, partial curve, poor fit]","29.1 µM [falling, single point]"
O=C(Cn1c(-c2cncs2)nc2ccccc21)NCCc1ccccc1,-48.6%,"20.6 µM [falling, single point]","29.1 µM [falling, single point]"
O=C(O)c1cccc(-c2nc3ccccc3[nH]2)c1,66.6%,"14.6 µM [rising, partial curve]","0.82 µM [rising, full curve, poor fit]"
N#C/C(=C/c1ccc(Br)s1)C(=O)NCCc1c[nH]c2ccccc12,36.3%,"8.2 µM [rising, partial curve]","23.1 µM [rising, single point]"
Clc1ccc(C2NCCc3sccc32)cc1 (configuration not stated),-6.99%,"0.00461 µM [falling, full curve, poor fit]",–
O=C(Cc1ccccc1)N1CCNCC1,24.7%,–,"0.00517 µM [falling, full curve, poor fit]"
CC(C)(C)Cc1nc2ccccc2n1CCc1ccccc1,-66.8%,"0.58 µM [rising, full curve]","0.326 µM [rising, partial curve, poor fit]"
Fc1ccccc1COc1ccc(Br)cc1CNCc1ccncc1,-15.4%,–,"6.51 µM [rising, single point]"
CCCCS(=O)c1c(O)c2ccccc2[nH]c1=O (configuration not stated),19%,–,–
CN1C(=O)CC(Nc2cccc3cccc(N)c23)C1=O (configuration not stated),-31.7%,"32.6 µM [falling, single point]","29.1 µM [falling, single point]"
Cc1cc(NC(=O)COc2coc(CN3CCN(c4ccccc4F)CC3)cc2=O)no1,-11.5%,–,"0.0058 µM [rising, full curve, poor fit]"
O=C(CN1CCOCC1)NCCNC(=O)CN1CCOCC1,–,"0.00517 µM [falling, full curve, poor fit]",–

# One compound at a time, from the list above:
# Cc1cc(N=Nc2ccc(Cl)cc2)cc(CN2CCCC2)c1O as listed: cell number change: -65.8%; AC50 [1]: 16.4 µM [falling, partial curve]; AC50 [2]: 13 µM [falling, partial curve]
# O=C(Cn1c(-c2cncs2)nc2ccccc21)NCCc1ccccc1 as listed: cell number change: -48.6%; AC50 [1]: 20.6 µM [falling, single point]; AC50 [2]: 29.1 µM [falling, single point]
# Cc1nn(Cc2ccccc2)c(C)c1NC(=O)CCCn1nc([N+](=O)[O-])cc1C as listed: AC50 [2]: 14.6 µM [rising, partial curve, poor fit]
# CC(=O)Nc1c(O)[nH]c2ccccc12 as listed: cell number change: -94.2%; AC50 [1]: 23.1 µM [falling, partial curve, poor fit]; AC50 [2]: 29.1 µM [falling, single point]

# Later entries

Structure (SMILES),cell number change,AC50 [1],AC50 [2]
CCn1c(-c2ccc[nH]c2=O)nc2ccccc21,-4.5%,–,"29.1 µM [falling, single point]"
CCOc1ccc(C2c3c(oc4cc(C)c(C)cc4c3=O)C(=O)N2CCCN(C)C)cc1OC (configuration not stated),-10.7%,–,"0.00517 µM [rising, full curve, poor fit]"
CN(C)C(CNC(=O)c1cc(S(=O)(=O)N(C)c2ccccc2)ccc1Cl)c1cccs1 (configuration not stated),57.7%,"14.6 µM [rising, partial curve]",–
O=C(NCCc1ccccc1)c1ccc2nc3cc(Cl)ccc3c(=O)n2c1,20.4%,–,"13 µM [falling, partial curve]"
Cc1cc(C)n(-c2nc(NC(C)C)nc(NC(C)C)n2)n1,-22.6%,–,–
FC(F)(F)c1ccc(CN2CCN(Cc3ccco3)CC2)cc1,-3.44%,–,"29.1 µM [rising, single point]"
CCc1ccc(NS(=O)(=O)c2ccc3c(c2)CCN3C(=O)CCC(=O)O)cc1,4.5%,"0.58 µM [rising, single point]",–
CCC(C)(C)NC(=O)CCCSc1nc2ccccc2[nH]1,-22.5%,–,"1.84 µM [falling, partial curve]"
COCCn1cc(C(=O)NCCCN2CCC(C)CC2)c2c3ccccc3n(C)c2c1=O,–,–,"0.206 µM [falling, full curve, poor fit]"
CNS(=O)(=O)c1cccc(C(=O)OCC(=O)NCc2ccccc2)c1,-92.2%,"29.1 µM [falling, single point]",–
COc1ccc(/C(O)=C2/C(=O)C(=O)N(CC3CCCO3)C2c2ccc(O)c(OC)c2)cc1 (configuration not stated),–,"0.461 µM [rising, single point]",–
N#Cc1ccc(C(=O)NCCCSc2ccccc2)cc1,3.95%,–,–
COc1ccc(OC)c(N/C=C/C(=C(C#N)C#N)N(C)C)c1,19.2%,–,"2.06 µM [rising, full curve]"
COc1ccc(N(Cc2cc3cc(OC)ccc3[nH]c2=O)S(C)(=O)=O)cc1,1.04%,–,–
CCOC(=O)c1[nH]c2ccc(F)cc2c1N=C(C)N(CC)CC,-11.4%,–,"29.1 µM [rising, single point]"
Cc1cccc(C)c1OCc1nnc2c3cnn(C)c3ncn12,234%,"3.66 µM [rising, full curve]","5.17 µM [rising, partial curve]"
CCOc1cc(/C=N/NC(=O)c2cccnc2)ccc1OCc1ccc(C(=O)OC)o1,13.4%,–,–
Cc1cc(C)c2c(=O)[nH]c(SCC(=O)Nc3cccc(S(=O)(=O)N(C)C)c3)nc2n1,12%,"2.91 µM [rising, single point]","6.51 µM [falling, full curve, poor fit]"
CCCCC(=O)Nc1ccc(NC(=S)NC(=O)CCCCl)cc1OC,20.7%,–,"0.411 µM [rising, single point]"
Cc1nc2c(=O)n(C)c(=O)n(C)c2nc1Cl,-70.1%,"25.9 µM [falling, partial curve]","25.9 µM [falling, partial curve]"

Structure (SMILES),cell number change,AC50 [1],AC50 [2]
COc1cc(OC)cc(C(=O)Nc2ccc3c(c2)CCCN3C(=O)c2cccs2)c1,-32.3%,"2.59 µM [falling, full curve]","16.4 µM [falling, single point]"
CCCSc1nc2sc3c(c2c(=O)[nH]1)CC(C)CC3 (configuration not stated),-7.94%,–,"0.355 µM [rising, full curve, poor fit]"
O=C(CN(Cc1ccc(F)cc1)C(=O)CNS(=O)(=O)c1ccc(F)cc1)NCC1CCCO1 (configuration not stated),42.3%,"16.4 µM [rising, single point]",–
O=C1c2ccccc2NC2(CCCC2)N1N=C1CCCC1,-10.8%,"0.13 µM [falling, full curve, poor fit]","20.6 µM [falling, partial curve]"
O=C(COC(=O)CCN1C(=O)c2cccc([N+](=O)[O-])c2C1=O)NCc1ccccc1,-23.2%,"0.82 µM [falling, full curve, poor fit]","0.82 µM [falling, full curve, poor fit]"
COc1ccc(C(C)=O)cc1CSc1nnc(Nc2ccccc2)s1,–,–,"3.26 µM [falling, partial curve]"
O=c1nc(-c2ccccc2)c2cc(Br)ccc2[nH]1,33.1%,"32.6 µM [rising, single point]",–
CCOC(=O)c1c(C)[nH]c(C(=O)OCc2csc(CC(=O)Nc3ccccc3C)n2)c1C,–,"0.651 µM [rising, partial curve]","0.92 µM [rising, partial curve]"
COc1ccc(-n2cc(-c3ccccc3)[nH]c2=S)c(OC)c1,2.42%,–,"6.51 µM [rising, single point]"
CCC1(C)CC(c2csc(N)n2)CCO1 (configuration not stated),2.41%,–,"6.51 µM [rising, single point]"
O=C(NCC1CCCO1)C1CCC(N2C(=O)c3ccccc3C2=O)CC1 (configuration not stated),16.6%,–,"29.1 µM [rising, single point]"
C=CCn1c(SCC(=O)Nc2ccc3c(c2)OCCO3)nc2cc(C(=O)O)ccc2c1=O,-15%,–,"0.00461 µM [falling, full curve, poor fit]"
O=C(NCCCN1CCOCC1)C1CCN(S(=O)(=O)c2cccc(Cl)c2Cl)CC1,17.7%,–,–
CN(C(=O)CSc1nnc(-c2cccnc2)n1-c1ccccc1F)C1CCS(=O)(=O)C1 (configuration not stated),-92.8%,–,–
COCCNC(=S)N/N=C(\C)CCc1ccc2c(c1)OCO2,-67.9%,"8.2 µM [falling, partial curve, poor fit]","5.17 µM [rising, single point]"
Cc1cccc(C(=O)Nc2ccc(CC(=O)O)cc2)c1,5.41%,–,"0.00461 µM [falling, full curve, poor fit]"
CC(C)N(CCCNC(=O)c1ccc(CS(=O)(=O)c2c(Cl)cccc2Cl)o1)Cc1ccccc1,8.4%,–,–
CCn1c(SCC(=O)NNC(=O)c2ccc(OC)cc2)nnc1C(C)C,27.8%,"2.31 µM [rising, full curve, poor fit]",–
